B1: SRSF8 (protein, UniProt Q9BRL6 2-282, looked up)
Serine/arginine-rich splicing …: SCGRPPPDVDGMITLKVDNLTYRTSPDSLRRVFEKYGRVGDVYIPREPHTKAPRGFAFVRFHDRRDAQDAEAAMDGAELDGRELRVQVARYGRRDLPRSRQGEPRGRSRGGGYGRRSRSYGRRSRSPRRRHRSRSRGPSCSRSRSRSRYRGSRYSRSPYSRSPYSRSRYSRSPYSRSRYRESRYGGSHYSSSGYSNSRYSRYHSSRSHSKSGSSTSSRSASTSKSSSARRSKSSSVSRSRSRSRSSSMTRSPPRVSKRKSKSRSRSKRPPKSPEEEGQMSS
B2: ILF3 (protein, UniProt Q12906 1-894, looked up)
Interleukin enhancer-binding …: MRPMRIFVNDDRHVMAKHSSVYPTQEELEAVQNMVSHTERALKAVSDWIDEQEKGSSEQAESDNMDVPPEDDSKEGAGEQKTEHMTRTLRGVMRVGLVAKGLLLKGDLDLELVLLCKEKPTTALLDKVADNLAIQLAAVTEDKYEILQSVDDAAIVIKNTKEPPLSLTIHLTSPVVREEMEKVLAGETLSVNDPPDVLDRQKCLAALASLRHAKWFQARANGLKSCVIVIRVLRDLCTRVPTWGPLRGWPLELLCEKSIGTANRPMGAGEALRRVLECLASGIVMPDGSGIYDPCEKEATDAIGHLDRQQREDITQSAQHALRLAAFGQLHKVLGMDPLPSKMPKKPKNENPVDYTVQIPPSTTYAITPMKRPMEEDGEEKSPSKKKKKIQKKEEKAEPPQAMNALMRLNQLKPGLQYKLVSQTGPVHAPIFTMSVEVDGNSFEASGPSKKTAKLHVAVKVLQDMGLPTGAEGRDSSKGEDSAEETEAKPAVVAPAPVVEAVSTPSAAFPSDATAEQGPILTKHGKNPVMELNEKRRGLKYELISETGGSHDKRFVMEVEVDGQKFQGAGSNKKVAKAYAALAALEKLFPDTPLALDANKKKRAPVPVRGGPKFAAKPHNPGFGMGGPMHNEVPPPPNLRGRGRGGSIRGRGRGRGFGGANHGGYMNAGAGYGSYGYGGNSATAGYSQFYSNGGHSGNASGGGGGGGGGSSGYGSYYQGDNYNSPVPPKHAGKKQPHGGQQKPSYGSGYQSHQGQQQSYNQSPYSNYGPPQGKQKGYNHGQGSYSYSNSYNSPGGGGGSDYNYESKFNYSGSGGRSGGNSYGSGGASYNPGSHGGYGGGSGGGSSYQGKQGGYSQSNYNSPGSGQNYSGPPSSYQSSQGGYGRNADHSMNYQYR
B3: SMC1A (protein, UniProt Q14683 1-1233, looked up)
Structural maintenance of …: MGFLKLIEIENFKSYKGRQIIGPFQRFTAIIGPNGSGKSNLMDAISFVLGEKTSNLRVKTLRDLIHGAPVGKPAANRAFVSMVYSEEGAEDRTFARVIVGGSSEYKINNKVVQLHEYSEELEKLGILIKARNFLVFQGAVESIAMKNPKERTALFEEISRSGELAQEYDKRKKEMVKAEEDTQFNYHRKKNIAAERKEAKQEKEEADRYQRLKDEVVRAQVQLQLFKLYHNEVEIEKLNKELASKNKEIEKDKKRMDKVEDELKEKKKELGKMMREQQQIEKEIKEKDSELNQKRPQYIKAKENTSHKIKKLEAAKKSLQNAQKHYKKRKGDMDELEKEMLSVEKARQEFEERMEEESQSQGRDLTLEENQVKKYHRLKEEASKRAATLAQELEKFNRDQKADQDRLDLEERKKVETEAKIKQKLREIEENQKRIEKLEEYITTSKQSLEEQKKLEGELTEEVEMAKRRIDEINKELNQVMEQLGDARIDRQESSRQQRKAEIMESIKRLYPGSVYGRLIDLCQPTQKKYQIAVTKVLGKNMDAIIVDSEKTGRDCIQYIKEQRGEPETFLPLDYLEVKPTDEKLRELKGAKLVIDVIRYEPPHIKKALQYACGNALVCDNVEDARRIAFGGHQRHKTVALDGTLFQKSGVISGGASDLKAKARRWDEKAVDKLKEKKERLTEELKEQMKAKRKEAELRQVQSQAHGLQMRLKYSQSDLEQTKTRHLALNLQEKSKLESELANFGPRINDIKRIIQSREREMKDLKEKMNQVEDEVFEEFCREIGVRNIREFEEEKVKRQNEIAKKRLEFENQKTRLGIQLDFEKNQLKEDQDKVHMWEQTVKKDENEIEKLKKEEQRHMKIIDETMAQLQDLKNQHLAKKSEVNDKNHEMEEIRKKLGGANKEMTHLQKEVTAIETKLEQKRSDRHNLLQACKMQDIKLPLSKGTMDDISQEEGSSQGEDSVSGSQRISSIYAREALIEIDYGDLCEDLKDAQAEEEIKQEMNTLQQKLNEQQSVLQRIAAPNMKAMEKLESVRDKFQETSDEFEAARKRAKKAKQAFEQIKKERFDRFNACFESVATNIDEIYKALSRNSSAQAFLGPENPEEPYLDGINYNCVAPGKRFRPMDNLSGGEKTVAALALLFAIHSYKPAPFFVLDEIDAALDNTNIGKVANYIKEQSTCNFQAIVISLKEEFYTKAESLIGVYPEQGDCVISKVLTFDLTKYPDANPNPNEQ
B4: UTP14A (protein, UniProt Q9BVJ6 1-771, looked up)
U3 small nucleolar …: MTANRLAESLLALSQQEELADLPKDYLLSESEDEGDNDGERKHQKLLEAISSLDGKNRRKLAERSEASLKVSEFNVSSEGSGEKLVLADLLEPVKTSSSLATVKKQLSRVKSKKTVELPLNKEEIERIHREVAFNKTAQVLSKWDPVVLKNRQAEQLVFPLEKEEPAIAPIEHVLSGWKARTPLEQEIFNLLHKNKQPVTDPLLTPVEKASLRAMSLEEAKMRRAELQRARALQSYYEAKARREKKIKSKKYHKVVKKGKAKKALKEFEQLRKVNPAAALEELEKIEKARMMERMSLKHQNSGKWAKSKAIMAKYDLEARQAMQEQLSKNKELTQKLQVASESEEEEGGTEDVEELLVPDVVNEVQMNADGPNPWMLRSCTSDTKEAATQEDPEQLPELEAHGVSESEGEERPVAEEEILLREFEERRSLRKRSELSQDAEPAGSQETKDSGSQEVLSELRVLSQKLKENHQSRKQKASSEGTIPQVQREEPAPEEEEPLLLQRPERVQTLEELEELGKEECFQNKELPRPVLEGQQSERTPNNRPDAPKEKKKKEQMIDLQNLLTTQSPSVKSLAVPTIEELEDEEERNHRQMIKEAFAGDDVIRDFLKEKREAVEASKPKDVDLTLPGWGEWGGVGLKPSAKKRRRFLIKAPEGPPRKDKNLPNVIINEKRNIHAAAHQVRVLPYPFTHHWQFERTIQTPIGSTWNTQRAFQKLTTPKVVTKPGHIINPIKAEDVGYRSSSRSDLSVIQRNPKRITTRHKKQLKKCSVD
B5: ADNP (protein, UniProt Q9H2P0 1-1102, looked up)
Activity-dependent …: MFQLPVNNLGSLRKARKTVKKILSDIGLEYCKEHIEDFKQFEPNDFYLKNTTWEDVGLWDPSLTKNQDYRTKPFCCSACPFSSKFFSAYKSHFRNVHSEDFENRILLNCPYCTFNADKKTLETHIKIFHAPNASAPSSSLSTFKDKNKNDGLKPKQADSVEQAVYYCKKCTYRDPLYEIVRKHIYREHFQHVAAPYIAKAGEKSLNGAVPLGSNAREESSIHCKRCLFMPKSYEALVQHVIEDHERIGYQVTAMIGHTNVVVPRSKPLMLIAPKPQDKKSMGLPPRIGSLASGNVRSLPSQQMVNRLSIPKPNLNSTGVNMMSSVHLQQNNYGVKSVGQGYSVGQSMRLGLGGNAPVSIPQQSQSVKQLLPSGNGRSYGLGSEQRSQAPARYSLQSANASSLSSGQLKSPSLSQSQASRVLGQSSSKPAAAATGPPPGNTSSTQKWKICTICNELFPENVYSVHFEKEHKAEKVPAVANYIMKIHNFTSKCLYCNRYLPTDTLLNHMLIHGLSCPYCRSTFNDVEKMAAHMRMVHIDEEMGPKTDSTLSFDLTLQQGSHTNIHLLVTTYNLRDAPAESVAYHAQNNPPVPPKPQPKVQEKADIPVKSSPQAAVPYKKDVGKTLCPLCFSILKGPISDALAHHLRERHQVIQTVHPVEKKLTYKCIHCLGVYTSNMTASTITLHLVHCRGVGKTQNGQDKTNAPSRLNQSPSLAPVKRTYEQMEFPLLKKRKLDDDSDSPSFFEEKPEEPVVLALDPKGHEDDSYEARKSFLTKYFNKQPYPTRREIEKLAASLWLWKSDIASHFSNKRKKCVRDCEKYKPGVLLGFNMKELNKVKHEMDFDAEWLFENHDEKDSRVNASKTADKKLNLGKEDDSSSDSFENLEEESNESGSPFDPVFEVEPKISNDNPEEHVLKVIPEDASESEEKLDQKEDGSKYETIHLTEEPTKLMHNASDSEVDQDDVVEWKDGASPSESGPGSQQVSDFEDNTCEMKPGTWSDESSQSEDARSSKPAAKKKATMQGDREQLKWKNSSYGKVEGFWSKDQSQWKNASENDERLSNPQIEWQNSTIDSEDGEQFDNMTDGVAEPMHGSLAGVKLSSQQA
B6: SF3B2 (protein, UniProt Q13435 1-895, looked up)
Splicing factor 3B subunit 2: MATEHPEPPKAELQLPPPPPPGHYGAWAAQELQAKLAEIGAPIQGNREELVERLQSYTRQTGIVLNRPVLRGEDGDKAAPPPMSAQLPGIPMPPPPLGLPPLQPPPPPPPPPPGLGLGFPMAHPPNLGPPPPLRVGEPVALSEEERLKLAQQQAALLMQQEERAKQQGDHSLKEHELLEQQKRAAVLLEQERQQEIAKMGTPVPRPPQDMGQIGVRTPLGPRVAAPVGPVGPTPTVLPMGAPVPRPRGPPPPPGDENREMDDPSVGPKIPQALEKILQLKESRQEEMNSQQEEEEMETDARSSLGQSASETEEDTVSVSKKEKNRKRRNRKKKKKPQRVRGVSSESSGDREKDSTRSRGSDSPAADVEIEYVTEEPEIYEPNFIFFKRIFEAFKLTDDVKKEKEKEPEKLDKLENSAAPKKKGFEEEHKDSDDDSSDDEQEKKPEAPKLSKKKLRRMNRFTVAELKQLVARPDVVEMHDVTAQDPKLLVHLKATRNSVPVPRHWCFKRKYLQGKRGIEKPPFELPDFIKRTGIQEMREALQEKEEQKTMKSKMREKVRPKMGKIDIDYQKLHDAFFKWQTKPKLTIHGDLYYEGKEFETRLKEKKPGDLSDELRISLGMPVGPNAHKVPPPWLIAMQRYGPPPSYPNLKIPGLNSPIPESCSFGYHAGGWGKPPVDETGKPLYGDVFGTNAAEFQTKTEEEEIDRTPWGELEPSDEESSEEEEEEESDEDKPDETGFITPADSGLITPGGFSSVPAGMETPELIELRKKKIEEAMDGSETPQLFTVLPEKRTATVGGAMMGSTHIYDMSTVMSRKGPAPELQGVEVALAPEELELDPMAMTQKYEEHVREQQAQVEKEDFSDMVAEHAAKQKQKKRKAQPQDSRGGSKKYKEFKF

Each molecule was assayed on BAF complex subunits and histone proteins (assay: Mass spectrometry proteomics of purified HA-SS18 WT and HA-SS18-SSX1 complexes (Tables 5A-5E)). Settings: HA-SS18SSX1_CHR_peptides: protein identified in the HA-SS18-SSX1 purification from solubilized chromatin (CHR), HEK-293T.
Parameters: species or system human
In the case of B1, the “Total (total peptides)” value is reported as 18 and the “Unique (unique peptides)” value is reported as 2. In the case of B2, the “Total (total peptides)” value is reported as 16 and the “Unique (unique peptides)” value is reported as 13. With B3 the “Total (total peptides)” value was 16 and the “Unique (unique peptides)” value was 15. B4 was tested, and the “Total (total peptides)” value was 16 and the “Unique (unique peptides)” value was 11. B5 was tested, and the “Total (total peptides)” value was 15 and the “Unique (unique peptides)” value was 14. For B6, the “Total (total peptides)” value was 17 and the “Unique (unique peptides)” value was 15.

Same assay, conditions: HA-SS18SSX1_NE_peptides: protein co-purified with HA-SS18-SSX1 BAF complexes from soluble nuclear extract (NE), HEK-293T cells
For B2, the “Total (peptides)” value was 2 and the “Unique (peptides)” value was 2. For B4, the “Total (peptides)” value was 1 and the “Unique (peptides)” value was 1.

Same assay, conditions: HA-SS18SSX1 purification, NE (soluble nuclear extract) fraction, HEK-293T; peptides per identified protein
In the case of B3, the “Total (total peptides)” value is reported as 5 and the “Unique (unique peptides)” value is reported as 5. For B6, the “Total (total peptides)” value was 3 and the “Unique (unique peptides)” value was 3.

Same assay, conditions: HA-SS18WT_CHR_peptides: HA-SS18 WT purification from nuclease-treated solubilized chromatin (CHR), HEK-293T; label = protein identified
In the case of B2, the “Total (peptides)” value is reported as 10 and the “Unique (peptides)” value is reported as 9. For B3, the “Total (peptides)” value was 14 and the “Unique (peptides)” value was 13. B4 was tested, and the “Total (peptides)” value was 6 and the “Unique (peptides)” value was 5. B5 was tested, and the “Total (peptides)” value was 12 and the “Unique (peptides)” value was 9. With B6 the “Total (peptides)” value was 7 and the “Unique (peptides)” value was 7.

Same assay, conditions: HA-SS18WT_CHR_peptides: protein identified in HA-SS18 WT BAF complex purification from nuclease-treated solubilized chromatin (CHR), HEK-293T
For B1, the “Total (total peptides)” value was 1 and the “Unique (unique peptides)” value was 1.

Same assay, conditions: HA-SS18WT_NE_peptides: proteins co-purified with HA-SS18 WT from nuclear extract (NE), HEK-293T
In the case of B3, the “Total (peptides)” value is reported as 1 and the “Unique (peptides)” value is reported as 1. For B6, the “Total (peptides)” value was 2 and the “Unique (peptides)” value was 2.

Reference: patent publication US20250283871A1, “COMPOSITIONS AND METHODS FOR MODULATING THE INTERACTION BETWEEN SS18-SSX FUSION ONCOPROTEIN AND NUCLEOSOMES” (Dana-Farber Cancer Institute, Inc., priority 2020, published 2025)
